From PubChem BioAssay AID602365 (National Center for Advancing Translational Sciences (NCATS), 2012)
The shares of active, inactive and inconclusive entries below differ from those in the screen. A potency beside an inconclusive call is a rough fit, not a confirmed value. Activity calls are given as the source filed them. Calls come from the whole dose curve; as a rule, active = well fitted inhibition curve with a large enough effect; inconclusive = small, poorly fitted or top-dose-only effect; inactive = flat fitted curve, though single readings scatter.

By UniProt entry, the sequences of proteins in these tests, tags left out.
UniProt P08659, whole entry, looked up: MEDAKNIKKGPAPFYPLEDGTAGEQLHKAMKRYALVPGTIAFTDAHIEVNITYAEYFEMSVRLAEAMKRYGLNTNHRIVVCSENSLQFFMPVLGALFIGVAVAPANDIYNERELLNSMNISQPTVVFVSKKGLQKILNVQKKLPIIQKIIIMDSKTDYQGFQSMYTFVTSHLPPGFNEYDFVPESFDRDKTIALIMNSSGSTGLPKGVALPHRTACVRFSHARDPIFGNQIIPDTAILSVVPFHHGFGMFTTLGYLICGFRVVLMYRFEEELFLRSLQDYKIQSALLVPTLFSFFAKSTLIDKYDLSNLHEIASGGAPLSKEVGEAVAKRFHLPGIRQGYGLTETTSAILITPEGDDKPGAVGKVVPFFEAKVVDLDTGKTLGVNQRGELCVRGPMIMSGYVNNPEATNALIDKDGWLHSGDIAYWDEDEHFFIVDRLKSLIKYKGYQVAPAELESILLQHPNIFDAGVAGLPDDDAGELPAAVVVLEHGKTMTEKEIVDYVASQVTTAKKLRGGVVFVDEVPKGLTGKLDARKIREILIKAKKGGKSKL

The molecules below were run against Luciferin 4-monooxygenase (Photinus pyralis) (UniProt P08659) (assay: FLuc inhibitory activity for the follow-up compounds in a biochemical assay with 1mM D-luciferin). Conditions: purified FLuc, luminescence; series mostly up to 57.5 µM; activity change, negative = inhibition: at the top concentration.
Excerpt: NCGC Assay Overview: Firefly (Photinus pyralis) luciferase is one of the most commonly used transcriptional reporters. It is considered one of the more dynamically responsive reporters - that is, responsive to changes in reporter transcription - as it requires no post-translational modifications and is enzymatically active directly after protein synthesis (Wood, 1998). With no endogenous expression in mammalian cells and without the requirement of external excitation, it offers very little background signal, thus generally providing excellent signal to background for most assays. Previous profiling work to determine the prevalence of compounds that affect FLuc enzymatic activity (PubChem AID 411) identified that ~3% of the MLSMR library (then at ~72K) inhibited FLuc. […] Of the compounds identified in this profile that inhibited FLuc, 151 compounds were selected for further analysis, in an effort to better understand their mode of inhibiting FLuc. The assay described here was to determine the activity of the compounds in a FLuc assay that contained a KM concentration of ATP and a high concentration (1mM) of D-luciferin.
NCGC Assay Protocol Summary: Reagents: 50mM Tris acetate, pH 7.5; 10mM Mg acetate; 1mM D-luciferin (Sigma #L9504); 10uM ATP; 0.01% Tween-20; 0.05% BSA; 10nM P. pyralis luciferase (Sigma #L9506) Control compounds used were two known firefly luciferase inhibitors (3-(5-(3-chlorophenyl)-1,2,4-oxadiazol-3-yl)benzoic acid and 5-(2-fluorophenyl)-3-phenyl-1,2,4-oxadiazole), and DMSO. Three microliters containing firefly luciferase substrates in buffer (final concentrations: 50mM Tris acetate, pH 7.5, 10mM Mg acetate, 0.01% Tween-20, 0.05% BSA, 1mM D-luciferin, 10uM ATP) are dispensed into each well of a Greiner white, solid-bottom 1536-well format plate using a flying reagent dispenser (FRD). These assay plates were then treated with 23nL of compound or DMSO using a Kalypsys pin tool, which allows for delivery of a 12-point intraplate titration of each compound to the assay plate (quantitative HTS), with a final compound concentrations ranging from approximately ~60uM to 0.3nM. One microliter of firefly luciferase in […] Tris-acetate buffer was then delivered by FRD to each well for a final enzyme concentration of 10nM. Luciferase activity was then measured using a ViewLux CCD imager (PerkinElmer), with an average exposure time of 2-30 seconds (2X binning, medium/high gain).

Potency, active:
Cc1c(NS(C)(=O)=O)cccc1-c1nc2ccccc2s1 16.3 µM, Cc1ccc2nc(-c3ccc(NC(=O)CN4CCN(C(=O)c5ccco5)CC4)cc3)sc2c1 14.6 µM, Nc1ccc(-c2nc3cc(N)ccc3s2)cc1 18.3 µM

Potency, inconclusive:
O=C(O)c1cccc(NC(=O)c2ccc(COc3ccc(Cl)cc3)cc2)c1 20.6 µM [inhibitor, partial curve], Cc1ccccc1C(=O)Nc1cccc(C(=O)Nc2ccccc2C(=O)O)c1 32.6 µM [inhibitor, partial curve], COc1ccc(Br)cc1C(=O)Nc1ccc(C(=O)O)cc1 32.6 µM [inhibitor, partial curve, poor fit], O=C(O)c1ccc(NC(=O)c2ccccc2NC(=O)c2ccccc2Cl)cc1 36.6 µM [inhibitor, partial curve, poor fit], O=C(O)c1cccc(NC(=O)c2ccccc2NC(=O)c2ccccc2F)c1 20.6 µM [inhibitor, partial curve], O=C(Nc1ccccc1C(=O)O)c1cccc(NC(=O)c2ccccc2Br)c1 23.1 µM [inhibitor, partial curve], COc1ccc2nc(NC(=O)c3ccc4ncsc4c3)sc2c1 2.59 µM [inhibitor, full curve], COc1ccc2nc(NC(=O)c3cccc(S(=O)(=O)N4CCOCC4)c3)sc2c1 32.6 µM [inhibitor, partial curve], O=C(O)c1ccccc1NC(=O)c1ccccc1Nc1ccccc1 18.3 µM [inhibitor, partial curve], CCOc1ccc2nc(NC(=O)c3cccnc3)sc2c1 4.61 µM [inhibitor, full curve], O=C(O)c1ccc(NC(=O)c2ccccc2NC(=O)c2ccccc2Br)cc1 23.1 µM [inhibitor, partial curve, poor fit], CC(=O)Nc1cccc(-c2nc3ccccc3s2)c1C 20.6 µM [inhibitor, partial curve], O=C(O)c1cccc(NC(=O)c2cccc(NC(=O)C3CCCO3)c2)c1 (configuration not stated) 20.6 µM [inhibitor, partial curve]

Activity change, negative = inhibition, inactive:
COc1c(C)cccc1C(=O)Nc1ccc(-c2nc3ccccc3s2)c(Cl)c1 -4.07%, O=C(Cc1ccccc1)Nc1ccccc1C(=O)Nc1ccc(C(=O)O)cc1 -0.0902%, COc1ccc(C(=O)Nc2cccc(C(=O)O)c2)cc1S(=O)(=O)N1CCCC1 -20.1%, COc1ccc2nc(NC(=O)c3nc(S(=O)(=O)Cc4ccc(C)cc4)ncc3Cl)sc2c1 0.938%, COc1ccc2nc(NC(=O)c3ccc(S(=O)(=O)N4CCCC(C)C4)cc3)sc2c1 (configuration not stated) -1.24%, O=C(Nc1ccccc1C(=O)O)c1ccccc1 -19.5%
